Assay results published in the supplement of paper PMC10849652.
The list shows a part of the results.

Protein sequences, listed by entry. Tags and fused reporters are not part of them. Lines headed by an entry give the natural chain unless they say otherwise; changes in a name come on top.
UniProt Q9HCP0: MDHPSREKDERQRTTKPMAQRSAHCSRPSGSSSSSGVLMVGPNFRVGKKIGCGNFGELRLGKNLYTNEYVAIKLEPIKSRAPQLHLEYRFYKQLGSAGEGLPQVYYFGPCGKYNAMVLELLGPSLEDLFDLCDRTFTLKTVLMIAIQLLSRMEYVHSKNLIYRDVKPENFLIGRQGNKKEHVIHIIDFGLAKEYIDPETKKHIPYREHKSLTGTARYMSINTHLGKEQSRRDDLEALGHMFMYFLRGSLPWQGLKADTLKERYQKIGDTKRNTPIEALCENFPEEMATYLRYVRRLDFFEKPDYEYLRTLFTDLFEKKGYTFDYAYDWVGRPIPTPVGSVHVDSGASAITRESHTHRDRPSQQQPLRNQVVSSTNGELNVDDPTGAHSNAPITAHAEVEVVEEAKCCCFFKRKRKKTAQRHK
UniProt Q14061: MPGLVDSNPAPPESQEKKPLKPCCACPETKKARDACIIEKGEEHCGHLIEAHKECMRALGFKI
UniProt Q6UUV7: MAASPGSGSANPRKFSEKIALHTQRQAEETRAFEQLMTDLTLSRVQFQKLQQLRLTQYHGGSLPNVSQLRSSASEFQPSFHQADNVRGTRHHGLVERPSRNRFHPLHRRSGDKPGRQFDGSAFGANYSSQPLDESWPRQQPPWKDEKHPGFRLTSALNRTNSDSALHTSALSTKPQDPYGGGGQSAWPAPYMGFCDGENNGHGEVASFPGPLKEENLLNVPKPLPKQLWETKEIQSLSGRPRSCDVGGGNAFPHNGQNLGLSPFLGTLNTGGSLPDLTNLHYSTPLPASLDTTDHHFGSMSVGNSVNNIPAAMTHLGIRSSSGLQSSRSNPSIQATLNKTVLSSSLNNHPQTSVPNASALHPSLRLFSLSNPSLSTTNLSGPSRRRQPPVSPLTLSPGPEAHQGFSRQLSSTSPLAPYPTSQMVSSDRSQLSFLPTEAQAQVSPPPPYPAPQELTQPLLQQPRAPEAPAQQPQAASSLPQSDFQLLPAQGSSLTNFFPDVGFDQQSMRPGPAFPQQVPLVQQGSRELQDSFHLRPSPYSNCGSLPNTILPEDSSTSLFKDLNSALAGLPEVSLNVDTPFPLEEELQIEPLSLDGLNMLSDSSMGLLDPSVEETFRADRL
UniProt Q9UNS2: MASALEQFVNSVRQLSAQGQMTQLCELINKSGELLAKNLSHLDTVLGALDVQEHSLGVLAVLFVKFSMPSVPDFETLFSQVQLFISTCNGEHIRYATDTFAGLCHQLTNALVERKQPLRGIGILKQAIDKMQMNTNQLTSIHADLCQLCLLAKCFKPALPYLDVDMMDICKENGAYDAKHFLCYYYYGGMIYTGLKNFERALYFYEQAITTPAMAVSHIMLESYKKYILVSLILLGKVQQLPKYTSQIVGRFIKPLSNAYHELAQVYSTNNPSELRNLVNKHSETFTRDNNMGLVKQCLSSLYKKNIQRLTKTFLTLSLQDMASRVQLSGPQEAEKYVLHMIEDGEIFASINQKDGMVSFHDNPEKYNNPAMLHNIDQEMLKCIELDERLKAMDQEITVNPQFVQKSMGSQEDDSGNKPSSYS
UniProt Q5TA50: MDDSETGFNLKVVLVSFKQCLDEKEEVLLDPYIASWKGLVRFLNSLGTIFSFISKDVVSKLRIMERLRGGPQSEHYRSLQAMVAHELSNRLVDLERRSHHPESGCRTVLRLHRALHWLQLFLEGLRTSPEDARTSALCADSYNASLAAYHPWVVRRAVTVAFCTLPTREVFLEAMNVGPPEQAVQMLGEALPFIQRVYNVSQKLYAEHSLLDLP
UniProt P52943: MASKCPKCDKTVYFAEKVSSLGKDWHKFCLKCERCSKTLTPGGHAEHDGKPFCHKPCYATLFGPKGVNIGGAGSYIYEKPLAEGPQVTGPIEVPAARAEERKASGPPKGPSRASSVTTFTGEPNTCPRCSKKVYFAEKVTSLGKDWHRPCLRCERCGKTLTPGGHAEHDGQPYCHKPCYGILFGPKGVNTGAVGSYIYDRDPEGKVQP
UniProt Q9UJA2: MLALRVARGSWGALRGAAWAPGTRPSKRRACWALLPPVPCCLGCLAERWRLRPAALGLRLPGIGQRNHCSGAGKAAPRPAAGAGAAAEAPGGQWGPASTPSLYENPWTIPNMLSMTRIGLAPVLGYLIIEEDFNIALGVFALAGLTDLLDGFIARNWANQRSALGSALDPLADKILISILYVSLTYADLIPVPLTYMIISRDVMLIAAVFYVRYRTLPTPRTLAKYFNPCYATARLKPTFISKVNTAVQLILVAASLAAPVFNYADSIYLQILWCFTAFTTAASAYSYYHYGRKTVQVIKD
UniProt P24311, whole entry, looked up: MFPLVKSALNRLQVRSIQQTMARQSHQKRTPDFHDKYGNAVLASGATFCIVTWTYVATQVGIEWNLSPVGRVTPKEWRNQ
UniProt Q16630, whole entry, looked up: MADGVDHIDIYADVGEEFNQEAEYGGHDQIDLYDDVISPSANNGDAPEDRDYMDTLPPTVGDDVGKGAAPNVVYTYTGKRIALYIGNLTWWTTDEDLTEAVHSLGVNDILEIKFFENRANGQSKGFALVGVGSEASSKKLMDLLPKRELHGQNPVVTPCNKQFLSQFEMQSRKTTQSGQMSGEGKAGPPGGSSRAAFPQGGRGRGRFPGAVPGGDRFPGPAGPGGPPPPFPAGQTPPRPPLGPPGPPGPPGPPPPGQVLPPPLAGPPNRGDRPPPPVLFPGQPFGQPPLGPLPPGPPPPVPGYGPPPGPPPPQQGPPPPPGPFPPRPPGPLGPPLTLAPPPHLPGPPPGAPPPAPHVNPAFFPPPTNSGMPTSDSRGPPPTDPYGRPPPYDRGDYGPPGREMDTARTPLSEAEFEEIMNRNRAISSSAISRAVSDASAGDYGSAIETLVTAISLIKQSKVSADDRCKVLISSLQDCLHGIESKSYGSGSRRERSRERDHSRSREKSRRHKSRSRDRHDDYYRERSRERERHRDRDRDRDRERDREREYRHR
UniProt Q9Y6N1: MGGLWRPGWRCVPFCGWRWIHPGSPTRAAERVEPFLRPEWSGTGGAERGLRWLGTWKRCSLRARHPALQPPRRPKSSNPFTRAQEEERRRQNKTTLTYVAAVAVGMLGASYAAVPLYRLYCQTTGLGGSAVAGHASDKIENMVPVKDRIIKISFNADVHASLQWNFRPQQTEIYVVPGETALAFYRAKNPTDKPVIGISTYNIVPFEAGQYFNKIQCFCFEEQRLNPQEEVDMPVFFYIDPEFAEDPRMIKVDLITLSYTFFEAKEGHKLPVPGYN
UniProt Q5HYK3: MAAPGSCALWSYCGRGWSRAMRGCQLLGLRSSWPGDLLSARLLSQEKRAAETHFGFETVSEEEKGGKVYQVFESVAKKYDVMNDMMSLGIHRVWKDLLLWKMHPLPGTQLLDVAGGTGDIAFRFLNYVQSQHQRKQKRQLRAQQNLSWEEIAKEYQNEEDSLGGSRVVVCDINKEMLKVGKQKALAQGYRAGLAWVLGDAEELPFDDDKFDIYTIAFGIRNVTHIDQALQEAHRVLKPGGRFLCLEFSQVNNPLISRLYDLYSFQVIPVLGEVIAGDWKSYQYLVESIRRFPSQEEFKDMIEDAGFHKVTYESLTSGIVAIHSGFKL
UniProt Q9NX08, whole entry, looked up: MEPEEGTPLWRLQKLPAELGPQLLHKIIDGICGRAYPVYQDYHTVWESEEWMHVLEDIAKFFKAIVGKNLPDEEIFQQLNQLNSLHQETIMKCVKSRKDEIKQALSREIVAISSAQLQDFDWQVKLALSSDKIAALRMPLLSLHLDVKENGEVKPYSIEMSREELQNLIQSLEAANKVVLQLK
UniProt O75575: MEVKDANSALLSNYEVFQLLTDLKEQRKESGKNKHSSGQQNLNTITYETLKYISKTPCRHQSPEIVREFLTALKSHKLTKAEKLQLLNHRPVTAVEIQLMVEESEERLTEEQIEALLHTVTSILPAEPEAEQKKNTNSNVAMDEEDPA
UniProt P15954, whole entry, looked up: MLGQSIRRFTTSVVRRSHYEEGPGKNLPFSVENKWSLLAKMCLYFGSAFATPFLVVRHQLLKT
UniProt Q92793, whole entry, looked up: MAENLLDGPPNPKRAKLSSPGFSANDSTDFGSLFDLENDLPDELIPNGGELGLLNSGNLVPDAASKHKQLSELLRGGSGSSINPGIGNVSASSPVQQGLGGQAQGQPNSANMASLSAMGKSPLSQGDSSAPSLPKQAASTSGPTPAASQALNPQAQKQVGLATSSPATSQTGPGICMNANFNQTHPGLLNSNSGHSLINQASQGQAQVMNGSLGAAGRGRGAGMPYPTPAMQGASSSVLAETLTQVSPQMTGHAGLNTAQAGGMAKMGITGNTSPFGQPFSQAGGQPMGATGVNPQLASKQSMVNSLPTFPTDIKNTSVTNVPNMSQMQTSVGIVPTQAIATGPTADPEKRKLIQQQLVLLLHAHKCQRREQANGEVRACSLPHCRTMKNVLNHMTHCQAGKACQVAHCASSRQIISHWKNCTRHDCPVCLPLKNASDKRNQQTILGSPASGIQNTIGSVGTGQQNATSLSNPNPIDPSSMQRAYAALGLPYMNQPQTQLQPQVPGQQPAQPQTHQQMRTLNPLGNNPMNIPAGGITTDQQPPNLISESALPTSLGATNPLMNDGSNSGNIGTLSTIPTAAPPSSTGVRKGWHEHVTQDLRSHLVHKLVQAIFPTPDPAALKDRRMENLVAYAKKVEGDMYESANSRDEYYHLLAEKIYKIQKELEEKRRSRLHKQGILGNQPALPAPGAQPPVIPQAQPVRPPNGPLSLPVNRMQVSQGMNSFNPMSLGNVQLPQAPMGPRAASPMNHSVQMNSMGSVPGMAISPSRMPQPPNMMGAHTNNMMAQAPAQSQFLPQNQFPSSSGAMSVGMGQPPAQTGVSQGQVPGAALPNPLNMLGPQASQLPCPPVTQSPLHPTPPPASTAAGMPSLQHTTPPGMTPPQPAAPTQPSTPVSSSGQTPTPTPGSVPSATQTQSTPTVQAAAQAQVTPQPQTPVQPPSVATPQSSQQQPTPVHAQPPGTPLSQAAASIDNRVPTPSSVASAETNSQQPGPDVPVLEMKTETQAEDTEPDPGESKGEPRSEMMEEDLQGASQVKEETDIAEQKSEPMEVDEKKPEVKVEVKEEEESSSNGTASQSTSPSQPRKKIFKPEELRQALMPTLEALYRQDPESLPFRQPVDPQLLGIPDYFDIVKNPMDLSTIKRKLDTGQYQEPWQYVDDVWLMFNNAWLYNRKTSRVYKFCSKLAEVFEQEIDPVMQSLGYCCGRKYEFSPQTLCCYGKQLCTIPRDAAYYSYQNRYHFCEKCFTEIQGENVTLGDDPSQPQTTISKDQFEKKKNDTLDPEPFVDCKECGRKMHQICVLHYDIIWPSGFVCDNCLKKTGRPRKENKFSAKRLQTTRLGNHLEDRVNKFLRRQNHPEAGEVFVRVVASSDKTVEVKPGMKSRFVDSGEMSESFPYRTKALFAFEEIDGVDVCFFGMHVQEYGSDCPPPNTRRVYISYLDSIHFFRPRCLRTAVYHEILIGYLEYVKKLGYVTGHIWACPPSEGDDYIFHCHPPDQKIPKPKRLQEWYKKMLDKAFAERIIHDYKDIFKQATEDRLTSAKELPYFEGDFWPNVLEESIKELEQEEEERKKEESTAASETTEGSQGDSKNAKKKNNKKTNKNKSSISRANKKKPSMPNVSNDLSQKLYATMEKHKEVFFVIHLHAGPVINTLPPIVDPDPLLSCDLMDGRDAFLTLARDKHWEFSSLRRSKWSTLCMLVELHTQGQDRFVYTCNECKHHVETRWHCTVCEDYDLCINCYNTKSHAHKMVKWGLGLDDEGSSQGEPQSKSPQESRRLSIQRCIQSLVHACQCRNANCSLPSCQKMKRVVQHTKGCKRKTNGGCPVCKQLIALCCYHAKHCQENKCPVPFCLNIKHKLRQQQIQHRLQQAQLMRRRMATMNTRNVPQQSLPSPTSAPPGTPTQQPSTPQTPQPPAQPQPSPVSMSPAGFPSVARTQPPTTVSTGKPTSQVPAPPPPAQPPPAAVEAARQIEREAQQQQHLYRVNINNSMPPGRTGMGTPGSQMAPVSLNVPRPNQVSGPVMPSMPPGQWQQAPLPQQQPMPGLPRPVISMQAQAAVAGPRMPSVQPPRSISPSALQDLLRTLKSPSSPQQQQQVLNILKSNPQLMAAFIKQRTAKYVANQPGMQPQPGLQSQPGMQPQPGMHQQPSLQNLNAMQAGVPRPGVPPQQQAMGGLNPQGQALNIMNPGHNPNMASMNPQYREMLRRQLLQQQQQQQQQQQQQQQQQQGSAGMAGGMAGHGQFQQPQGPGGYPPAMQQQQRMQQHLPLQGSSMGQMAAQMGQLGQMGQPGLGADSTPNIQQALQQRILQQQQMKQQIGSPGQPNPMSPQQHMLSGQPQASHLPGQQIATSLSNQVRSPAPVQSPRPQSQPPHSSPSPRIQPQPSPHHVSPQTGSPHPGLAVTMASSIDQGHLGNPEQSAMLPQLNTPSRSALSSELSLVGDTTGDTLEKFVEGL
UniProt P54108: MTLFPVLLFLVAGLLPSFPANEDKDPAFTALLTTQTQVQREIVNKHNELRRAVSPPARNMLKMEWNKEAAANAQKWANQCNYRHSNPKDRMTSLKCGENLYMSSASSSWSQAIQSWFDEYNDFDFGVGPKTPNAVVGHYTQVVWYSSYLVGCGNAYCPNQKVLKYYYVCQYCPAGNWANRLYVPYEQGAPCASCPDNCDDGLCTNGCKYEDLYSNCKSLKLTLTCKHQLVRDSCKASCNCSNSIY

Columns and labels:
Assay in all cases: log2 fold change, soluble protein after heating vs DMSO (PISA); higher = thermal stabilisation; K562 cells, 10 uM, 30 min; active = over 0.2 and 3.5 SD of the protein, either way, in both replicates (recomputed)
[1] = compound: CC1=C(C=C(C=C1)NC(=O)C2=CC(=CC=C2)C(C)(C)C#N)NC3=CC4=C(C=C3)N=CN(C4=O)C
How it was run: (§1)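 K562 cells (2×10^6 cells/mL) were treated with 10 μM compound for 30 min, and aliquots were heated for 3 min over 48°C-58°C. Pooled aliquots were extracted in PBS with 0.5% NP-40 at 4°C, and the supernatant after 21,000xg for 90 min was measured by TMTpro 16plex LC-MS/MS with channel sums equalised. Reported thermal stability, relative to control samples and from duplicates, is a log2 fold change.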

[2] = compound: CC1=C(C=C(C=C1)NC(=O)C2=CC(=CC=C2)N(C)C)NC(=O)C3=CC=C(C=C3)O
How it was run: as §1

Nexturastat A = compound: CCCCN(Cc1ccc(C(=O)NO)cc1)C(=O)Nc1ccccc1 [Nexturastat A]
How it was run: as §1

[3] = compound: CCCc1cc(C)[nH]c(=O)c1CNC(=O)c1cc(-c2ccnc(N3CCN(C)CC3)c2)cc2c1cnn2C(C)C
How it was run: as §1

givinostat = compound: CCN(CC)Cc1ccc2cc(COC(=O)Nc3ccc(C(=O)NO)cc3)ccc2c1 [givinostat]
How it was run: as §1

barasertib = compound: CCN(CCCOc1ccc2c(Nc3cc(CC(=O)Nc4cccc(F)c4)[nH]n3)ncnc2c1)CCOP(=O)(O)O [barasertib]
How it was run: as §1

[4] = compound: CC1=CC=C(C=C1)SC2=C3C=C(SC3=CN=C2)C(=O)N
How it was run: as §1

[5] = compound: CC1=NC(=CC=C1)C2=C(N=C(N2)C(C)(C)C)C3=CC4=NC=CN=C4C=C3
How it was run: as §1

vemurafenib = compound: CCCS(=O)(=O)Nc1ccc(F)c(C(=O)c2c[nH]c3ncc(-c4ccc(Cl)cc4)cc23)c1F [vemurafenib]
How it was run: as §1

[6] = compound: CCCS(=O)(=O)Nc1ccc(F)c(C(=O)c2c[nH]c3ncc(Cl)cc23)c1F
How it was run: as §1

Row | Target | log2 fold change [1] | log2 fold change [2] | log2 fold change (Nexturastat A) | log2 fold change [3] | log2 fold change (givinostat) | log2 fold change (barasertib) | log2 fold change [4] | log2 fold change [5] | log2 fold change (vemurafenib) | log2 fold change [6]
1 | CSNK1G1 (UniProt Q9HCP0) | inactive: -0.023 | inactive: 0.251 | inactive: 0.337 | inactive: 0.241 | inactive: 0.123 | inactive: -0.013 | – | – | – | –
2 | CRELD1 isoform 2 (UniProt Q96HD1) | inactive: -0.069 | inactive: -0.124 | inactive: -0.104 | inactive: -0.26 | inactive: -0.057 | inactive: 0.169 | inactive: 0.02 | inactive: 0.065 | inactive: -0.272 | inactive: -0.087
3 | COQ10B (UniProt Q9H8M1) | inactive: 0.057 | inactive: 0.111 | inactive: -0.097 | – | – | inactive: 0.276 | – | inactive: -0.184 | – | –
4 | CORO7 isoform 3 (UniProt P57737) | inactive: 0.149 | inactive: -0.003 | inactive: -0.066 | inactive: -0.039 | inactive: -0.011 | inactive: 0.031 | inactive: 0.029 | inactive: 0.054 | inactive: 0.011 | inactive: 0.002
5 | COLGALT1 (UniProt Q8NBJ5) | inactive: 0.007 | inactive: 0.018 | inactive: -0.043 | inactive: 0.044 | inactive: 0.013 | inactive: -0.026 | inactive: -0.044 | inactive: -0.022 | inactive: -0.035 | inactive: -0.046
6 | COMMD4 (UniProt Q9H0A8) | inactive: 0.013 | inactive: -0.004 | inactive: -0.07 | inactive: 0.034 | inactive: 0.158 | inactive: -0.029 | – | inactive: 0.137 | inactive: 0.135 | –
7 | COX17 (UniProt Q14061) | inactive: -0.015 | inactive: -0.358 | inactive: 0 | inactive: 0.025 | inactive: 0.029 | – | – | inactive: 0.024 | inactive: 0.029 | –
8 | CRYM-AS1 (UniProt A6NIL9) | inactive: 0.239 | inactive: -0.066 | inactive: 0.332 | inactive: -0.049 | inactive: 0.189 | inactive: -0.036 | – | inactive: -0.224 | inactive: 0.161 | –
9 | CPEB2 isoform 9 (UniProt Q7Z5Q1) | inactive: 0.081 | inactive: -0.077 | inactive: 0.238 | – | inactive: 0.172 | inactive: -0.024 | inactive: 0.028 | inactive: -0.197 | inactive: -0.389 | inactive: 0.274
10 | CRTC3 (UniProt Q6UUV7) | inactive: -0.017 | inactive: 0.087 | inactive: -0.049 | active: -0.543 | – | inactive: 0.035 | inactive: 0.033 | – | inactive: -0.093 | inactive: 0.144
11 | COPS3 (UniProt Q9UNS2) | inactive: -0.008 | inactive: -0.013 | inactive: -0.02 | inactive: -0.044 | inactive: -0.056 | inactive: 0.016 | inactive: 0.009 | inactive: 0.034 | inactive: 0.004 | inactive: 0.011
12 | CPEB4 (UniProt Q17RY0) | inactive: -0.158 | inactive: -0.009 | – | inactive: 0.036 | – | inactive: -0.047 | inactive: 0.022 | inactive: 0.03 | inactive: 0.034 | inactive: 0.053
13 | CPTP (UniProt Q5TA50) | inactive: 0.078 | inactive: -0.323 | – | inactive: -0.288 | inactive: 0.01 | – | – | inactive: 0.086 | – | –
14 | CRTC1 isoform 2 (UniProt Q6UUV9) | inactive: -0.001 | inactive: 0.195 | inactive: 0.24 | – | inactive: 0.158 | inactive: 0.015 | inactive: -0.086 | inactive: 0.073 | inactive: -0.035 | inactive: 0.051
15 | CRTAP (UniProt O75718) | inactive: 0 | inactive: -0.016 | inactive: -0.049 | inactive: 0.039 | inactive: -0.006 | inactive: -0.043 | inactive: -0.043 | inactive: -0.035 | inactive: -0.051 | inactive: -0.039
16 | CRIP2 isoform 2 (UniProt P52943) | inactive: -0.044 | – | inactive: -0.059 | – | inactive: 0.124 | inactive: -0.1 | inactive: 0.019 | inactive: -0.029 | inactive: 0.163 | inactive: 0.009

Row | Target | log2 fold change [1] | log2 fold change [2] | log2 fold change (Nexturastat A) | log2 fold change [3] | log2 fold change (givinostat) | log2 fold change (barasertib) | log2 fold change [4] | log2 fold change [5] | log2 fold change (vemurafenib) | log2 fold change [6]
17 | CRLS1 (UniProt Q9UJA2) | active: 0.337 | – | – | inactive: -0.074 | inactive: -0.108 | – | inactive: 0.064 | inactive: -0.014 | inactive: 0.033 | inactive: 0.117
18 | COX7B (UniProt P24311) | inactive: 0.048 | – | inactive: -0.056 | inactive: -0.188 | inactive: -0.013 | inactive: -0.025 | inactive: 0.045 | inactive: 0.094 | inactive: -0.148 | inactive: 0.136
19 | CSNK2A2 (UniProt P19784) | inactive: -0.037 | inactive: 0.009 | inactive: 0.004 | inactive: -0.035 | inactive: 0.03 | inactive: 0.003 | inactive: 0.021 | inactive: 0.005 | inactive: 0 | inactive: 0.08
20 | CPSF6 isoform 2 (UniProt Q16630) | inactive: 0.054 | inactive: 0.02 | inactive: -0.042 | inactive: 0.035 | inactive: 0.048 | inactive: -0.042 | inactive: -0.027 | inactive: 0.02 | inactive: 0.001 | inactive: -0.069
21 | COPRS (UniProt Q9NQ92) | inactive: -0.028 | inactive: 0.045 | inactive: 0.09 | inactive: -0.05 | inactive: 0.015 | inactive: 0.08 | inactive: -0.02 | inactive: -0.078 | inactive: 0.039 | inactive: -0.152
22 | COMTD1 (UniProt Q86VU5) | inactive: 0.034 | inactive: 0.016 | inactive: 0.013 | inactive: -0.016 | inactive: -0.089 | inactive: 0.089 | inactive: 0.004 | inactive: 0.068 | inactive: 0.008 | inactive: -0.032
23 | COX11 (UniProt Q9Y6N1) | inactive: -0.094 | inactive: -0.077 | inactive: -0.066 | inactive: -0.047 | inactive: -0.051 | inactive: -0.006 | inactive: -0.006 | inactive: 0.086 | inactive: 0.027 | inactive: 0.037
24 | COQ5 (UniProt Q5HYK3) | inactive: -0.04 | inactive: 0.054 | inactive: 0.061 | inactive: -0.035 | inactive: -0.074 | inactive: -0.05 | inactive: 0.04 | inactive: -0.012 | inactive: -0.033 | inactive: -0.006
25 | CSNK1D (UniProt P48730) | inactive: -0.001 | inactive: 0.003 | inactive: 0.117 | inactive: 0.015 | inactive: -0.254 | inactive: -0.032 | inactive: -0.033 | inactive: -0.018 | inactive: 0.081 | inactive: -0.047
26 | COMMD8 (UniProt Q9NX08) | inactive: 0.01 | inactive: -0.034 | inactive: 0.052 | inactive: 0.014 | inactive: 0.007 | inactive: 0.069 | inactive: 0.085 | inactive: 0.044 | – | inactive: 0.028
27 | CRCP (UniProt O75575) | inactive: -0.06 | – | inactive: 0.13 | inactive: 0 | – | inactive: 0.031 | inactive: 0.046 | inactive: 0.049 | – | inactive: 0.085
28 | COX7C (UniProt P15954) | inactive: -0.057 | inactive: -0.187 | inactive: 0.027 | inactive: 0.143 | inactive: -0.271 | inactive: 0.061 | inactive: -0.01 | inactive: 0.088 | inactive: -0.018 | inactive: -0.085
29 | CREBBP (UniProt Q92793) | inactive: 0.007 | inactive: -0.015 | inactive: -0.044 | inactive: -0.01 | inactive: -0.058 | inactive: 0.023 | inactive: 0.002 | inactive: 0.016 | inactive: 0.022 | inactive: 0.022
30 | CR1L (UniProt Q2VPA4) | – | – | – | – | inactive: 0.101 | – | – | – | – | –
31 | CRISP3 isoform 3 (UniProt P54108) | – | – | – | – | – | inactive: 0.39 | – | – | – | –
32 | COX10 (UniProt Q12887) | – | inactive: 0 | inactive: 0.051 | inactive: 0.051 | inactive: 0.016 | inactive: 0.006 | inactive: 0.114 | inactive: 0.029 | inactive: 0.036 | inactive: -0.004

Quoted from above, entries 21 to 22
Row | Target | log2 fold change [1] | log2 fold change [2] | log2 fold change (Nexturastat A) | log2 fold change [3] | log2 fold change (givinostat) | log2 fold change (barasertib) | log2 fold change [4] | log2 fold change [5] | log2 fold change (vemurafenib) | log2 fold change [6]
21 | COPRS (UniProt Q9NQ92) | inactive: -0.028 | inactive: 0.045 | inactive: 0.09 | inactive: -0.05 | inactive: 0.015 | inactive: 0.08 | inactive: -0.02 | inactive: -0.078 | inactive: 0.039 | inactive: -0.152
22 | COMTD1 (UniProt Q86VU5) | inactive: 0.034 | inactive: 0.016 | inactive: 0.013 | inactive: -0.016 | inactive: -0.089 | inactive: 0.089 | inactive: 0.004 | inactive: 0.068 | inactive: 0.008 | inactive: -0.032
